# Whole data set: some 33,000 sequences, median “E-score (-0.5 to 0.5)” near -0.016, cut for the highest 2% near 0.3. This is one part of the list.
# Biological target: T1, Yer184c (UniProt P39961)
# T1 sequence: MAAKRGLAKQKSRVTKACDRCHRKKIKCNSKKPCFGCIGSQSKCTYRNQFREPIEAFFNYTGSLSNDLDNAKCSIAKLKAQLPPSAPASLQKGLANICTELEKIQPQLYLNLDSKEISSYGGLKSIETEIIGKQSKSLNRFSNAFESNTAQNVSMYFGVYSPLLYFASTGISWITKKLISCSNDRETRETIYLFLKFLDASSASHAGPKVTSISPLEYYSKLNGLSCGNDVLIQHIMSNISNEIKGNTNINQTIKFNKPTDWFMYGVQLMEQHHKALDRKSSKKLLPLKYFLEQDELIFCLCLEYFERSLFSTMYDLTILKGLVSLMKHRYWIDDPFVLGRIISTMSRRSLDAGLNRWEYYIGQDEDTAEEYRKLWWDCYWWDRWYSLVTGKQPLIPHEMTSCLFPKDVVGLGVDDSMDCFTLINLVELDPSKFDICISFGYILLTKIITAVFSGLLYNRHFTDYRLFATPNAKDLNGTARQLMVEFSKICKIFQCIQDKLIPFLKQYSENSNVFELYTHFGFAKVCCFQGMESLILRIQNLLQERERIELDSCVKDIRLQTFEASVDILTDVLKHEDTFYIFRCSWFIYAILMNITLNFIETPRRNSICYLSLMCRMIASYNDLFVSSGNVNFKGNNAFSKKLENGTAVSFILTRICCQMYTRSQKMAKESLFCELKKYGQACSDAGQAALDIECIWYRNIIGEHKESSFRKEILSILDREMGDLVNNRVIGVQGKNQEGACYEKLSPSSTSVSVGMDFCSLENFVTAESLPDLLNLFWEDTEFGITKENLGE
# Test: PBM E-score (8-mer binding enrichment) (E-score (-0.5 to 0.5)); higher = stronger / more preferred TF binding
# Conditions: protein concentration: 100 nM; construct: GST-full length
# Procedure, shortened: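 Universal all-10-mer Agilent arrays, fresh or stripped once, were converted to double-stranded form by primer extension. GST-tagged yeast transcription factors from PURExpress in vitro transcription/translation, full-length or DNA-binding domain only, were applied at about 100-200 nM and detected with fluorescent anti-GST. After masliner normalisation, the Universal PBM Analysis Suite scored each ungapped eight-base word together with its reverse complement by E-score.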
row,Sequence,PBM E-score
1,AAGGTTAG,-0.196
2,CGATCAGC,0.0642
3,AGATCCCG,0.299
4,GGCCAGTA,-0.11
5,CAGGGCCC,-0.198
6,CGTATTTA,0.198
7,AGGCTACA,-0.2
8,ACTCTCAA,-0.034
9,CCTTACCA,-0.138
10,CCAGCACC,-0.316
11,ACTTAAAG,-0.102
12,AATGTTAT,0.184
13,ACCACCCC,-0.313
14,CACCTCTA,-0.0197
15,CTGTTAAC,0.194
16,GAAACCGC,0.22
17,AATGTTGG,-0.0323
18,ATTTAACG,0.239
19,AAGGGCCT,-0.258
20,CGTAGCCC,-0.227
21,ATCGATTA,0.0997
22,GCACTACA,-0.142
23,ACGTATCT,-0.217
24,CCAATGCC,-0.0639
25,ACTCCTAG,-0.174

row,Sequence,PBM E-score
1,ATGACACC,-0.18
2,TCGGAACA,0.408
3,GGGGCTGA,-0.303
4,GAGCGTCC,-0.246
5,AATGGACG,0.0643
6,AGAGTCGC,-0.122
7,CGGTACAC,0.041
8,GACTGATA,-0.151
9,AGCTCCGC,0.127
10,AACAAGAC,0.105
11,ACTAACGC,-0.0148
12,CTGATGTC,0.106
13,ACTGAACC,0.197
14,AACGGCGA,0.299
15,GGGCATCA,-0.114
16,TAGTTCCA,0.193
17,CACTGGGA,-0.181
18,AATATCTG,0.0878
19,AATGGTGC,0.0479
20,AGGGGGGA,-0.379
21,ATTCTTCA,0.0675
22,CTATTAAA,0.21
23,CCTGGCAC,-0.199
24,AATTAGTG,0.124
25,GAATCCCA,-0.0522

row,Sequence,PBM E-score
1,TCGTTCAA,0.0681
2,CGGAGTCA,0.0567
3,AGTATAAC,-0.0238
4,CAGGGCCG,0.0897
5,CAACCCTC,-0.174
6,ATTGCTGC,0.0432
7,GGTTAACA,0.187
8,CCCGGCTA,0.206
9,CAAAAAGC,0.153
10,CGCGCGGC,0.289
11,ATCTTAAC,0.114
12,AACAATTC,0.102
13,AGGTTTAG,-0.14
14,ATTGTCCA,0.143
15,TATCCCGA,0.151
16,CAGGTCTC,-0.181
17,ATCATAAC,0.191
18,GGATCTTA,0.043
19,CTAGAAGC,-0.192
20,CCAGTAGA,-0.165
21,AGCATTCG,-0.114
22,ACCTTAGA,-0.0545
23,AGAAGCTG,-0.0592
24,ACAGATTA,-0.0539
25,AGGATGCC,-0.0165

row,Sequence,PBM E-score
1,AGTAGAAC,-0.0614
2,ACGCAAAA,0.0726
3,CCCCTACA,-0.323
4,AGTTTCAT,0.133
5,GCAGCATA,-0.141
6,CCACCGCA,-0.116
7,TACATTCA,0.0249
8,TACAGACA,0.13
9,CCTTCCGA,0.227
10,GGTTTTAC,-0.0929
11,CCCGCGCA,0.0139
12,TGACGACA,0.126
13,ATCTTGTG,-0.0568
14,AAGGAAGT,0.19
15,CATAACCG,0.093
16,CCCCGGCC,0.0277
17,ATCCTCAG,0.0632
18,CGCCTCGA,0.0701
19,AACAAAGC,0.242
20,CCGCCGCC,0.0576
21,AATTGGAG,-0.179
22,GCAAGCAA,0.0281
23,CATGCGAC,-0.0765
24,CAAATTTA,0.119
25,ACTCGTCC,0.04

row,Sequence,PBM E-score
1,GAGCACAA,0.0865
2,AACGGTAG,-0.118
3,GCACTGGC,-0.192
4,ATGCTTAC,-0.216
5,CTTCGAAG,0.132
6,GATCGTGC,-0.0697
7,GAAAAGCA,0.0693
8,CACCAGAC,-0.00896
9,AGTGTGGA,0.00846
10,ATACCCAC,-0.0253
11,ATTCGACG,0.0394
12,TATTCAAA,0.288
13,GACGAAAC,0.121
14,ACATTCCC,-0.0347
15,ACAGATGT,-0.0749
16,GCGCGCGA,0.213
17,AGTCGACT,0.172
18,ACTTGGAG,-0.279
19,AGGTTTGC,0.0145
20,ACTATGGC,-0.152
21,GGTGCGCA,0.0342
22,AAGCGGTA,-0.117
23,ACGCGAGG,-0.153
24,CCTCTATC,-0.123
25,GCTTCACC,-0.00787

row,Sequence,PBM E-score
1,CTCATCAG,0.0399
2,AGGATTTA,0.0332
3,AGGACCGA,0.0382
4,CAGCGTGA,-0.138
5,TCTCCCAA,0.0611
6,ATGTTTAG,0.117
7,AGTGTCAT,-0.0666
8,AAGATAAA,0.197
9,CAGTTCAC,0.0247
10,AGAGGCAC,-0.166
11,CACACAAA,0.071
12,GTGCGCGA,-0.0661
13,ATTAACAG,0.0231
14,ATATTGTG,-0.153
15,GTCAGCTA,-0.174
16,GTATGGCA,-0.179
17,CAGTATCA,-0.191
18,ATGCCACG,-0.207
19,CACTTGTA,-0.0668
20,TAACTGAA,-0.186
21,TTAGAAAA,0.141
22,ACTTTTCG,0.192
23,CTGAGCTA,-0.237
24,GCAGTGCA,-0.0176
25,ACCACGGA,0.107

row,Sequence,PBM E-score
1,CGCTGATA,-0.0148
2,ACGGCTGG,0.00884
3,AGGTACGG,-0.1
4,ACAGGCGG,-0.00977
5,CAGAGTAG,-0.183
6,ATGACATG,-0.178
7,ACGACAAG,-0.218
8,GACAGTCC,-0.0645
9,CTTCGAGA,-0.0739
10,GTCAAAAA,0.18
11,AAAGTGAC,-0.0309
12,CCTAGTCA,-0.369
13,TAAATATA,0.283
14,ACTGGCCT,-0.0993
15,GCTTGGCA,-0.209
16,CATGTGTC,-0.0846
17,CCCAGAGA,-0.186
18,AATATACC,0.0935
19,ACCATACC,-0.198
20,ATGAACCA,0.125
21,ATCAGCAT,0.0011
22,ACGAGGAG,-0.091

# Looked up above:
# Entry for GCTTGGCA under PBM E-score: -0.209
# Entry for ACCATACC under PBM E-score: -0.198
# Entry for CTTCGAGA under PBM E-score: -0.0739
# Entry for ACAGGCGG under PBM E-score: -0.00977
# Entry for CCTAGTCA under PBM E-score: -0.369
# Entry for ACGGCTGG under PBM E-score: 0.00884
# Entry for AATATACC under PBM E-score: 0.0935
